PubChem BioAssay AID743121, NCATS – 2013

Assay: 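Genes whose silencing strengthens cell killing by camptothecin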 (primary screen)
System: MDA-MB-231 cells, a human breast cancer line
Reagents: single siRNA against human genes, 20 nM siRNA (0.8 pmol per well)
Duration: 120 h (drug added 48 h after transfection, read 72 h later)
Challenge: camptothecin 20 nM (about EC30) for 72 h; vehicle 0.1% DMSO in parallel plates
Read-out: 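Cell viability by ATP luminescence (CellTiter-Glo) as % of non-targeting siRNA wells, and the log2 ratio of viability without drug over viability with camptothecin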
Reading the numbers: log2 vehicle/camptothecin viability: higher = stronger sensitisation to camptothecin; viability with camptothecin and viability without drug: higher = more viable cells
Call rule: 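Each gene scored by redundant siRNA activity (RSA) over its individual siRNA ratios; a gene is called active at p < 0.001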
Here is one part, drawn at random, of about 26,000 reagents. 167 of them (0.63%) count as active. 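Calls are per gene from RSA p-values that are not deposited; an individual active-marked siRNA can sensitise only weakly.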 Reagents against one gene are numbered here. Reagent sequences are not shown.

gene symbol	reagent no.	log2 vehicle/camptothecin viability	viability with camptothecin (% of control)	viability without drug (% of control)	Call
ALDH1B1 (aldehyde dehydrogenase 1 family member B1)	1	-0.165	76.8	68.5	inactive
ALDH1B1 (aldehyde dehydrogenase 1 family member B1)	2	-0.572	84	56.5	inactive
ALDH1B1 (aldehyde dehydrogenase 1 family member B1)	3	0.212	72.3	83.7	inactive
ALDH1B1 (aldehyde dehydrogenase 1 family member B1)	4	-0.00917	80.6	80.1	inactive
CD200R1 (CD200 receptor 1)	1	-0.209	64.4	55.7	inactive
CD200R1 (CD200 receptor 1)	2	-0.535	66	45.6	inactive
CD200R1 (CD200 receptor 1)	3	0.447	64.1	87.4	inactive
CD200R1 (CD200 receptor 1)	4	-0.533	85.2	58.9	inactive
ICAM1 (intercellular adhesion molecule 1)	1	-0.217	91.1	78.4	inactive
ICAM1 (intercellular adhesion molecule 1)	2	-0.0836	57.5	54.2	inactive
ICAM1 (intercellular adhesion molecule 1)	3	0.191	61.1	69.8	inactive
ICAM1 (intercellular adhesion molecule 1)	4	0.239	20.4	24	inactive
MAT1A (methionine adenosyltransferase 1A)	1	-0.228	110	94	inactive
MAT1A (methionine adenosyltransferase 1A)	2	-0.121	48.4	44.5	inactive
MAT1A (methionine adenosyltransferase 1A)	3	0.235	68	80.1	inactive
MAT1A (methionine adenosyltransferase 1A)	4	0.0188	59.4	60.2	inactive
UBA52 (ubiquitin A-52 residue ribosomal protein fusion product 1)	1	0.0206	98.2	99.6	inactive
UBA52 (ubiquitin A-52 residue ribosomal protein fusion product 1)	2	-0.295	2.44	1.99	inactive
UBA52 (ubiquitin A-52 residue ribosomal protein fusion product 1)	3	0.328	73.6	92.3	inactive
UBA52 (ubiquitin A-52 residue ribosomal protein fusion product 1)	4	-0.185	10.7	9.45	inactive
HACD2 (3-hydroxyacyl-CoA dehydratase 2)	1	0.46	57.1	78.5	inactive
HACD2 (3-hydroxyacyl-CoA dehydratase 2)	2	-0.542	119	81.6	inactive
HACD2 (3-hydroxyacyl-CoA dehydratase 2)	3	-0.578	42.9	28.8	inactive
HACD2 (3-hydroxyacyl-CoA dehydratase 2)	4	0.345	42.8	54.4	inactive
DYRK1B	1	-0.226	109	93.5	inactive
DYRK1B	2	-0.151	23.8	21.5	inactive
DYRK1B	3	0.282	37.3	45.3	inactive
DYRK1B	4	0.735	41.8	69.6	inactive
VEGFA (vascular endothelial growth factor A)	1	0.134	62.2	68.2	inactive
VEGFA (vascular endothelial growth factor A)	2	-0.304	102	83	inactive
VEGFA (vascular endothelial growth factor A)	3	-0.0172	116	115	inactive
VEGFA (vascular endothelial growth factor A)	4	-0.324	106	84.4	inactive
P4HA3 (prolyl 4-hydroxylase subunit alpha 3)	1	0.022	95.8	97.3	inactive
P4HA3 (prolyl 4-hydroxylase subunit alpha 3)	2	0.972	18.9	37.2	inactive
P4HA3 (prolyl 4-hydroxylase subunit alpha 3)	3	-0.0165	90.4	89.4	inactive
DNAAF3 (dynein axonemal assembly factor 3)	1	-0.233	37.6	32	inactive
DNAAF3 (dynein axonemal assembly factor 3)	2	0.2	26.5	30.5	inactive
DNAAF3 (dynein axonemal assembly factor 3)	3	-0.309	81.4	65.7	inactive
DNAAF3 (dynein axonemal assembly factor 3)	4	0.0795	89.4	94.4	inactive
REV3L (REV3 like, DNA directed polymerase zeta catalytic subunit)	1	-0.616	73.5	47.9	inactive
REV3L (REV3 like, DNA directed polymerase zeta catalytic subunit)	2	-0.44	34.1	25.1	inactive
REV3L (REV3 like, DNA directed polymerase zeta catalytic subunit)	3	0.0984	83.6	89.5	inactive
REV3L (REV3 like, DNA directed polymerase zeta catalytic subunit)	4	-0.762	24.7	14.5	inactive
JUNB (JunB proto-oncogene, AP-1 transcription factor subunit)	1	0.069	89.2	93.6	inactive
JUNB (JunB proto-oncogene, AP-1 transcription factor subunit)	2	-0.0643	103	98.1	inactive
JUNB (JunB proto-oncogene, AP-1 transcription factor subunit)	3	-0.152	114	103	inactive
JUNB (JunB proto-oncogene, AP-1 transcription factor subunit)	4	-0.309	111	89.6	inactive

Copied from the listing (4 entries):
gene symbol	reagent no.	log2 vehicle/camptothecin viability	viability with camptothecin (% of control)	viability without drug (% of control)	Call
VEGFA (vascular endothelial growth factor A)	1	0.134	62.2	68.2	inactive
VEGFA (vascular endothelial growth factor A)	2	-0.304	102	83	inactive
VEGFA (vascular endothelial growth factor A)	3	-0.0172	116	115	inactive
VEGFA (vascular endothelial growth factor A)	4	-0.324	106	84.4	inactive
